According to article PMC4864424:
Results are given in words; binding and its absence hold for the method and conditions named. Binding seen in cells or lysates may run through a third protein. These calls come from enrichment with a bait or labelling near it, and not all partners need be listed. Values belong to the molecule of their own block, whether it stands above or below them.

Protein sequences, listed by entry. Tags and fused reporters are not part of them. Lines headed by an entry give the natural chain unless they say otherwise; changes in a name come on top. Residues count along the entry.
UniProt Q96QP1: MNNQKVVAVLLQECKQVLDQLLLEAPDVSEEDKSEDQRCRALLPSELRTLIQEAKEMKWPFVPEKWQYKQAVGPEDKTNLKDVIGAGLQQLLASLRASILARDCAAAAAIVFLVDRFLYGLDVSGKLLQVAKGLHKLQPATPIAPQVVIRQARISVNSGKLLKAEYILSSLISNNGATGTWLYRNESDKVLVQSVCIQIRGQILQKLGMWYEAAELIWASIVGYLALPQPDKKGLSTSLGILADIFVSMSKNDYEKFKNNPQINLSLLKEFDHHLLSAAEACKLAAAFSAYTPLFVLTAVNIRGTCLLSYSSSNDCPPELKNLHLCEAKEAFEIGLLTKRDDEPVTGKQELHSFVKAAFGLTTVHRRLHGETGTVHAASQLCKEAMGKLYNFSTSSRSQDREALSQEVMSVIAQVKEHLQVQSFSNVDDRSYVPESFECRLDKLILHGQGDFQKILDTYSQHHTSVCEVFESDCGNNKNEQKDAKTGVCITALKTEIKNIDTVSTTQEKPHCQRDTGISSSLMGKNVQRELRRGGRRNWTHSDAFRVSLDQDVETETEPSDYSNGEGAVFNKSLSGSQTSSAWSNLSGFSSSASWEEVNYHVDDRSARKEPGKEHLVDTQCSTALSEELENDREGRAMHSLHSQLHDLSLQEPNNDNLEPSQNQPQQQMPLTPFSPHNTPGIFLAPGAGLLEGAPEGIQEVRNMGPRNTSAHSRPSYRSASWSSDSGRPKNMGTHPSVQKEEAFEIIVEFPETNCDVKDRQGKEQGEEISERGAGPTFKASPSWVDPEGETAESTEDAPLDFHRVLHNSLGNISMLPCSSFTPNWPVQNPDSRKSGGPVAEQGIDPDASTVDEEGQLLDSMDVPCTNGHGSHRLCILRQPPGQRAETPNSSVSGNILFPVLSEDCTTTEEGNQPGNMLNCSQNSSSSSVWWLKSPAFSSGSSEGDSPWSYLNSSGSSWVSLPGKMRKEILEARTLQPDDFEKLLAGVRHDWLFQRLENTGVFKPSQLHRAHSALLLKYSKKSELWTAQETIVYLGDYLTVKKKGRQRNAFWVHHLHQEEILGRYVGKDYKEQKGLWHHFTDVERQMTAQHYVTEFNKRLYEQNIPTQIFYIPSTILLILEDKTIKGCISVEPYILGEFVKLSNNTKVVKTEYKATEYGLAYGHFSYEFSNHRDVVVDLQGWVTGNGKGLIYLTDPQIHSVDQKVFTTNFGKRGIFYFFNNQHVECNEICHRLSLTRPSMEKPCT
HA-ALPK1 N-terminal (Nt, 1-569 a.a.): residues 1-569 of Q96QP1
HA-ALPK1 Nt1 (1-271 a.a.): residues 1-271 of Q96QP1
HA-ALPK1 Nt2 (249-569 a.a.): residues 249-569 of Q96QP1
HA-ALPK1 middle region (mid, 432-961 a.a.): residues 432-961 of Q96QP1
HA-ALPK1 C-terminal region (Ct, 950-1244 a.a.): residues 950-1244 of Q96QP1
UniProt Q9P0M2: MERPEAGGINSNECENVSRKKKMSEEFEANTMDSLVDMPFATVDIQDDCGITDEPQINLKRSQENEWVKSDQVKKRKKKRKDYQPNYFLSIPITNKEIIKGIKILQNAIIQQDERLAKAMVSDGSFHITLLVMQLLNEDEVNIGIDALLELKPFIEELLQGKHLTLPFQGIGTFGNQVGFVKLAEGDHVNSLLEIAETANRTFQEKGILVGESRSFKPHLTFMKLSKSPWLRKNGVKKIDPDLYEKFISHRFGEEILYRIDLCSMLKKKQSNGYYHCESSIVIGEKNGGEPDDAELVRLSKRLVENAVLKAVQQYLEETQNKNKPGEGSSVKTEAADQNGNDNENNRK
UniProt O43150: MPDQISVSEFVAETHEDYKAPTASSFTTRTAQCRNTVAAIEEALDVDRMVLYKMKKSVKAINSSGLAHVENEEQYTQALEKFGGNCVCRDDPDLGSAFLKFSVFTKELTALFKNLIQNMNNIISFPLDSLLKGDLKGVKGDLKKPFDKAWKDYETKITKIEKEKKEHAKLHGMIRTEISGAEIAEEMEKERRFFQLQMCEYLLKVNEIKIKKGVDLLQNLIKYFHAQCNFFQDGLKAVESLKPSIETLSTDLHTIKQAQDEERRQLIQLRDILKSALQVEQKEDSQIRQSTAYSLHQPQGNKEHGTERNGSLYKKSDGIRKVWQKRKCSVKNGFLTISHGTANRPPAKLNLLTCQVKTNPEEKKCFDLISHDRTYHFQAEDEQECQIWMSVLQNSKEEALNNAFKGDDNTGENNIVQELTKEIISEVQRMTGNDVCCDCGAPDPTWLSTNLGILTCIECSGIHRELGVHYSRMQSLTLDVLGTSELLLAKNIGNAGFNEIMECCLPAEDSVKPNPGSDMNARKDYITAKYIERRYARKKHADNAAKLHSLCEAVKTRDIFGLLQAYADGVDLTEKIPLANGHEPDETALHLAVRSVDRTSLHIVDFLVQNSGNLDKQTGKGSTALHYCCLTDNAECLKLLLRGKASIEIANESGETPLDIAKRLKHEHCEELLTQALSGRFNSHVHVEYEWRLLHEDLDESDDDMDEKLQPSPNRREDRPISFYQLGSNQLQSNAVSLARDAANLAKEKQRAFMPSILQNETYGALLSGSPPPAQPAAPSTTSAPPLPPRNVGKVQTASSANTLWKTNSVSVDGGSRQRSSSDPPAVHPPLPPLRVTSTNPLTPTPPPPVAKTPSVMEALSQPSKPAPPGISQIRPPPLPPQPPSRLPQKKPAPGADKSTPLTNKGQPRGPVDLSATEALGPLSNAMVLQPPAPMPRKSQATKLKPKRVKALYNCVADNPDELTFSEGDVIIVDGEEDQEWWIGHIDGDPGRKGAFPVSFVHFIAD
UniProt P47756: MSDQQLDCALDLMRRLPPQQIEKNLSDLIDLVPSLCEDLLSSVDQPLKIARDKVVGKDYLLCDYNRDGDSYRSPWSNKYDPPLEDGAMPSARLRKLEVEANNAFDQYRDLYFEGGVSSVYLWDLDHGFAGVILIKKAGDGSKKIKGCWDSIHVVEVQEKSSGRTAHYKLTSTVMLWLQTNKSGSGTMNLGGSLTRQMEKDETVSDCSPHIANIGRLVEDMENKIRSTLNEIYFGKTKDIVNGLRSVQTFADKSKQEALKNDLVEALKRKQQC
UniProt P35579: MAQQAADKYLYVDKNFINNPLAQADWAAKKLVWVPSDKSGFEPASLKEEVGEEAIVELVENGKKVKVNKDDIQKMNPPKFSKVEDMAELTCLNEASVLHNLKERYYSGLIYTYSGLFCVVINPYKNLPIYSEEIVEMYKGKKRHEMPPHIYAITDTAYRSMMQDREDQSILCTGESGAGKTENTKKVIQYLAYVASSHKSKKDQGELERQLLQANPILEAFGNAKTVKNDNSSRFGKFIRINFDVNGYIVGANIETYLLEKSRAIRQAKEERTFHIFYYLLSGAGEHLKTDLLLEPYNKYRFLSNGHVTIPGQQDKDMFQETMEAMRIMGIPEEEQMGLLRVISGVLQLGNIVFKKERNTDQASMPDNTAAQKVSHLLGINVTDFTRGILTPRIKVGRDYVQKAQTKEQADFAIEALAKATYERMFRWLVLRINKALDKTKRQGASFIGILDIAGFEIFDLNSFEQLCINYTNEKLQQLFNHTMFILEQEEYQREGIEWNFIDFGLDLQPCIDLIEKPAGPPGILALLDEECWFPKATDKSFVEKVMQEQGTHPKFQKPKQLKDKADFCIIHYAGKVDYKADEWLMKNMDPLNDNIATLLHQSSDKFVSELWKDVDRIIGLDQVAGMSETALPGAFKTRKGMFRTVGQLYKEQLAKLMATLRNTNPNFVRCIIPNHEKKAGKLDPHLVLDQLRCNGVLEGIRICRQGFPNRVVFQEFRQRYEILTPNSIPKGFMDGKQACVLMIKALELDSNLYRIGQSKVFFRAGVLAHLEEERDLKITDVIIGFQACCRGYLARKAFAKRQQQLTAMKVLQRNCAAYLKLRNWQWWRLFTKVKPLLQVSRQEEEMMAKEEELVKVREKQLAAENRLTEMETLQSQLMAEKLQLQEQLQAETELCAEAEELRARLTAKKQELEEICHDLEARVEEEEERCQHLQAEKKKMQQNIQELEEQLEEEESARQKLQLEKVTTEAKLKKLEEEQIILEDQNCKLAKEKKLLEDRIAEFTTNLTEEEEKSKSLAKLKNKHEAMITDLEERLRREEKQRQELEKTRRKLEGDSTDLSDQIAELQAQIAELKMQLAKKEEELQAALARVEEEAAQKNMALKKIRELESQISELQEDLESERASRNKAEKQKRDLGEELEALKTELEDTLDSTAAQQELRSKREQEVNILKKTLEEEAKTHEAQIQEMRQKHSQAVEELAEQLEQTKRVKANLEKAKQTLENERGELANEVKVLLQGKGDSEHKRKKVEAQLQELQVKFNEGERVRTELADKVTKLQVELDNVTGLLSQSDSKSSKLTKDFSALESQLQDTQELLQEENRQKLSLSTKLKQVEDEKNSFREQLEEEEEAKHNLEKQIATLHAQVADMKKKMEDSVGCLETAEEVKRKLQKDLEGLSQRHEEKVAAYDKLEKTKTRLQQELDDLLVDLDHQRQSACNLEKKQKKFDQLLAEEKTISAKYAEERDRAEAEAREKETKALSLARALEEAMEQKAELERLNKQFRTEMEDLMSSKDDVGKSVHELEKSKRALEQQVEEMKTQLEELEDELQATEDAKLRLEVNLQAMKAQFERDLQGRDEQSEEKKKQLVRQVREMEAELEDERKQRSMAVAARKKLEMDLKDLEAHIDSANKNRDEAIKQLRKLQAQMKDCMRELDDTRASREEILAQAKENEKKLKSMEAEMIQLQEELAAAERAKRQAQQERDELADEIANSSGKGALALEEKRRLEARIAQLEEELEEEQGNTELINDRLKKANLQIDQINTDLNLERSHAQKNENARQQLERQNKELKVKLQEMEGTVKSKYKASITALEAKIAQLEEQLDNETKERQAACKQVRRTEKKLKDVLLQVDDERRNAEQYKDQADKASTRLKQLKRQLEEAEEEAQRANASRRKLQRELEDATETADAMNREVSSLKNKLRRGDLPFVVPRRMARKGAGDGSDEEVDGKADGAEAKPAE
UniProt Q6S8J3: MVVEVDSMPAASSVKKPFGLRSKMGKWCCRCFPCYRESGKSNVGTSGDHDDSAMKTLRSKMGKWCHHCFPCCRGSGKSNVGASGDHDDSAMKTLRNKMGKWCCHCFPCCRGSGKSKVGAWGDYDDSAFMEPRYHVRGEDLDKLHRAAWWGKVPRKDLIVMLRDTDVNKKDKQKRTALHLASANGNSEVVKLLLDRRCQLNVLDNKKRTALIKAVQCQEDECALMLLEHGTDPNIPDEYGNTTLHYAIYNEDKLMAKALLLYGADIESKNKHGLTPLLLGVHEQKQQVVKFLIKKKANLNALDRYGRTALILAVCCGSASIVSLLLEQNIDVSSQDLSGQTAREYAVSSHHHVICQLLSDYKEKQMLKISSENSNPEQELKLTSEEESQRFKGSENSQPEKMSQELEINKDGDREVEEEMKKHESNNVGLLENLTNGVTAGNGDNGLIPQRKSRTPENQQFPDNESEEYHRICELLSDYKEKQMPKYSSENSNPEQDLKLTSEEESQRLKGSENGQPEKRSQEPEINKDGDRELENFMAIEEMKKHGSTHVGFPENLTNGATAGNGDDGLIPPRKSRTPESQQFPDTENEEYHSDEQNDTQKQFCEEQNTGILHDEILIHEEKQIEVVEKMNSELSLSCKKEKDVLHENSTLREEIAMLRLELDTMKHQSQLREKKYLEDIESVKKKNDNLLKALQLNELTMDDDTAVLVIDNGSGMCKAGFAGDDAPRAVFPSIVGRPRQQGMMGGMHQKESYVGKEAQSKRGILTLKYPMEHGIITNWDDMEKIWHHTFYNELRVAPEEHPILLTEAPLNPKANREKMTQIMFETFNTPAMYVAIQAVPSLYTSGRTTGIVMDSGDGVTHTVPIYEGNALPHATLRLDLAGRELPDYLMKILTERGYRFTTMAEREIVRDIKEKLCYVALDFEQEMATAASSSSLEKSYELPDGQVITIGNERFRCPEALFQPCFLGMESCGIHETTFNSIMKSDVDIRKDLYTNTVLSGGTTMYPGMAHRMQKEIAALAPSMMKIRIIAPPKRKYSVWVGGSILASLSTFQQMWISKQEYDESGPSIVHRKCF
UniProt P62136: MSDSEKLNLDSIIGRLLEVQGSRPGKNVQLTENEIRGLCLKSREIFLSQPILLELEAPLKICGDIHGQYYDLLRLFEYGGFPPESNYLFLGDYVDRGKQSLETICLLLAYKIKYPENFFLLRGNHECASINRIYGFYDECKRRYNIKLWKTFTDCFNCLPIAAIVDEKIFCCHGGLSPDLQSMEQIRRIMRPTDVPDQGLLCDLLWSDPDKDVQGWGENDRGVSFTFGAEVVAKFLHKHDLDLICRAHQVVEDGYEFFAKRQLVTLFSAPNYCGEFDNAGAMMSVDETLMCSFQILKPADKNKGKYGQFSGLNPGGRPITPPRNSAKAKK

Key:
[1] = target: Halo-ALPK1 full-length (FL) recombinant protein (human) (UniProt Q96QP1); assay: affinity purification with mass spectrometry; Halo-tagged ALPK1 purified from 293F incubated overnight with 300 ug THP-1 protein lysate, HaloLink resin 4 C 4 h, washed with lysis buffer with 0.01% tween-20, eluted by TEV protease cleavage, UPLC-MS/MS; five independent experiments; only the target purified
[2] = target: HA-ALPK1 full-length (FL, 1-1244 a.a.) (human) (UniProt Q96QP1); assay: affinity purification with mass spectrometry; immunoprecipitation of HA-ALPK1 FL and five truncated forms (Nt, Nt1, Nt2, Mid, Ct), cellular proteins identified by LC/MS/MS; three replicates for each form
[3] = target: HA-ALPK1 C-terminal region (Ct, 950-1244 a.a.) (human) (UniProt Q96QP1); assay: as above
[4] = target: HA-ALPK1 middle region (mid, 432-961 a.a.) (human) (UniProt Q96QP1); assay: as above
[5] = target: HA-ALPK1 Nt1 (1-271 a.a.) (human) (UniProt Q96QP1); assay: as above
[6] = target: HA-ALPK1 Nt2 (249-569 a.a.) (human) (UniProt Q96QP1); assay: as above
[7] = target: HA-ALPK1 N-terminal (Nt, 1-569 a.a.) (human) (UniProt Q96QP1); assay: as above

binding [1]: binds
binding [2]: binds
binding [3]: binds
binding [4]: binds
Molecule: A-kinase anchoring protein 18 gamma (from UniProt Q9P0M2 1-348)

binding [1]: binds
binding [5]: binds
binding [2]: binds
binding [6]: binds
binding [7]: binds
binding [3]: binds
Molecule: Arf-GAP with SH3 domain, ANK repeat and PH domain-containing protein 2 isoform a (from UniProt O43150 1-1006)

binding [1]: binds
binding [5]: binds
binding [2]: binds
binding [7]: binds
Molecule: F-actin-capping protein subunit beta isoform 1 (from UniProt P47756 1-272)

binding [1]: binds
binding [5]: binds
binding [2]: binds
binding [7]: binds
Molecule: Myosin-9 (endogenous myosin IIA) (from UniProt P35579 1-1960)

binding [1]: binds
binding [5]: binds
binding [2]: binds
binding [7]: binds
binding [3]: binds
binding [4]: binds
Molecule: POTE ankyrin domain family member E (from UniProt Q6S8J3 1-1075)

binding [1]: binds
binding [2]: binds
binding [3]: binds
Molecule: Protein phosphatase I alpha subunit partial (from UniProt P62136 1-330)

binding [1]: binds
binding [5]: binds
binding [2]: binds
binding [6]: binds
binding [3]: binds
binding [4]: binds
B1: Charged multivesicular body protein 2a (protein, UniProt O43633 1-222)
chain: MDLLFGRRKTPEELLRQNQRALNRAMRELDRERQKLETQEKKIIADIKKMAKQGQMDAVRIMAKDLVRTRRYVRKFVLMRANIQAVSLKIQTLKSNNSMAQAMKGVTKAMGTMNRQLKLPQIQKIMMEFERQAEIMDMKEEMMNDAIDDAMGDEEDEEESDAVVSQVLDELGLSLTDELSNLPSTGGSLSVAAGGKKAEAAASALADADADLEERLKNLRRD

binding [1]: binds
binding [5]: binds
binding [2]: binds
binding [7]: binds
binding [3]: binds
binding [4]: binds
B2: Heavy neurofilament subunit (protein, UniProt P12036 1-1020)
chain: MMSFGGADALLGAPFAPLHGGGSLHYALARKGGAGGTRSAAGSSSGFHSWTRTSVSSVSASPSRFRGAGAASSTDSLDTLSNGPEGCMVAVATSRSEKEQLQALNDRFAGYIDKVRQLEAHNRSLEGEAAALRQQQAGRSAMGELYEREVREMRGAVLRLGAARGQLRLEQEHLLEDIAHVRQRLDDEARQREEAEAAARALARFAQEAEAARVDLQKKAQALQEECGYLRRHHQEEVGELLGQIQGSGAAQAQMQAETRDALKCDVTSALREIRAQLEGHAVQSTLQSEEWFRVRLDRLSEAAKVNTDAMRSAQEEITEYRRQLQARTTELEALKSTKDSLERQRSELEDRHQADIASYQEAIQQLDAELRNTKWEMAAQLREYQDLLNVKMALDIEIAAYRKLLEGEECRIGFGPIPFSLPEGLPKIPSVSTHIKVKSEEKIKVVEKSEKETVIVEEQTEETQVTEEVTEEEEKEAKEEEGKEEEGGEEEEAEGGEEETKSPPAEEAASPEKEAKSPVKEEAKSPAEAKSPEKEEAKSPAEVKSPEKAKSPAKEEAKSPPEAKSPEKEEAKSPAEVKSPEKAKSPAKEEAKSPAEAKSPEKAKSPVKEEAKSPAEAKSPVKEEAKSPAEVKSPEKAKSPTKEEAKSPEKAKSPEKEEAKSPEKAKSPVKAEAKSPEKAKSPVKAEAKSPEKAKSPVKEEAKSPEKAKSPVKEEAKSPEKAKSPVKEEAKTPEKAKSPVKEEAKSPEKAKSPEKAKTLDVKSPEAKTPAKEEARSPADKFPEKAKSPVKEEVKSPEKAKSPLKEDAKAPEKEIPKKEEVKSPVKEEEKPQEVKVKEPPKKAEEEKAPATPKTEEKKDSKKEEAPKKEAPKPKVEEKKEPAVEKPKESKVEAKKEEAEDKKKVPTPEKEAPAKVEVKEDAKPKEKTEVAKKEPDDAKAKEPSKPAEKKEAAPEKKDTKEEKAKKPEEKPKTEAKAKEDDKTLSKEPSKPKAEKAEKSSSTDQKDSKPPEKATEDKAAKGK

binding [1]: binds
binding [5]: binds
binding [2]: binds
binding [6]: binds
binding [3]: binds
binding [4]: binds
B3: Myosin regulatory light chain 12A (protein, UniProt P19105 1-171)
chain: MSSKRTKTKTKKRPQRATSNVFAMFDQSQIQEFKEAFNMIDQNRDGFIDKEDLHDMLASLGKNPTDEYLDAMMNEAPGPINFTMFLTMFGEKLNGTDPEDVIRNAFACFDEEATGTIQEDYLRELLTTMGDRFTDEEVDELYREAPIDKKGNFNYIEFTRILKHGAKDKDD

binding [1]: binds
binding [5]: binds
binding [2]: binds
binding [6]: binds
binding [7]: binds
binding [3]: binds
binding [4]: binds
B4: gp180-carboxypeptidase D-like enzyme (enzyme, UniProt O75976 32-1380)
chain: AHIKKAEATTTTTSAGAEAAEGQFDRYYHEEELESALREAAAAGLPGLARLFSIGRSVEGRPLWVLRLTAGLGSLIPEGDAGPDAAGPDAAGPLLPGRPQVKLVGNMHGDETVSRQVLIYLARELAAGYRRGDPRLVRLLNTTDVYLLPSLNPDGFERAREGDCGFGDGGPSGASGRDNSRGRDLNRSFPDQFSTGEPPALDEVPEVRALIEWIRRNKFVLSGNLHGGSVVASYPFDDSPEHKATGIYSKTSDDEVFKYLAKAYASNHPIMKTGEPHCPGDEDETFKDGITNGAHWYDVEGGMQDYNYVWANCFEITLELSCCKYPPASQLRQEWENNRESLITLIEKVHIGVKGFVKDSITGSGLENATISVAGINHNITTGRFGDFYRLLVPGTYNLTVVLTGYMPLTVTNVVVKEGPATEVDFSLRPTVTSVIPDTTEAVSTASTVAIPNILSGTSSSYQPIQPKDFHHHHFPDMEIFLRRFANEYPNITRLYSLGKSVESRELYVMEISDNPGVHEPGEPEFKYIGNMHGNEVVGRELLLNLIEYLCKNFGTDPEVTDLVHNTRIHLMPSMNPDGYEKSQEGDSISVIGRNNSNNFDLNRNFPDQFVQITDPTQPETIAVMSWMKSYPFVLSANLHGGSLVVNYPFDDDEQGLATYSKSPDDAVFQQIALSYSKENSQMFQGRPCKNMYPNEYFPHGITNGASWYNVPGGMQDWNYLQTNCFEVTIELGCVKYPLEKELPNFWEQNRRSLIQFMKQVHQGVRGFVLDATDGRGILNATISVAEINHPVTTYKTGDYWRLLVPGTYKITASARGYNPVTKNVTVKSEGAIQVNFTLVRSSTDSNNESKKGKGASSSTNDASDPTTKEFETLIKDLSAENGLESLMLRSSSNLALALYRYHSYKDLSEFLRGLVMNYPHITNLTNLGQSTEYRHIWSLEISNKPNVSEPEEPKIRFVAGIHGNAPVGTELLLALAEFLCLNYKKNPAVTQLVDRTRIVIVPSLNPDGRERAQEKDCTSKIGQTNARGKDLDTDFTNNASQPETKAIIENLIQKQDFSLSVALDGGSMLVTYPYDKPVQTVENKETLKHLASLYANNHPSMHMGQPSCPNKSDENIPGGVMRGAEWHSHLGSMKDYSVTYGHCPEITVYTSCCYFPSAARLPSLWADNKRSLLSMLVEVHKGVHGFVKDKTGKPISKAVIVLNEGIKVQTKEGGYFHVLLAPGVHNIIAIADGYQQQHSQVFVHHDAASSVVIVFDTDNRIFGLPRELVVTVSGATMSALILTACIIWCICSIKSNRHKDGFHRLRQHHDEYEDEIRMMSTGSKKSLLSHEFQDETDTEEETLYSSKH
